Data as given in patent US10710978B2, “STK4 inhibitors for treatment of hematologic malignancies” (Dana-Farber Cancer Institute, Inc., priority 2015, dated 2020).
For at least one compound, name, drawing or mass did not settle the structure.

Protein sequences, listed by entry. Tags and fused reporters are not part of them. Lines headed by an entry give the natural chain unless they say otherwise; changes in a name come on top.
UniProt Q9P289: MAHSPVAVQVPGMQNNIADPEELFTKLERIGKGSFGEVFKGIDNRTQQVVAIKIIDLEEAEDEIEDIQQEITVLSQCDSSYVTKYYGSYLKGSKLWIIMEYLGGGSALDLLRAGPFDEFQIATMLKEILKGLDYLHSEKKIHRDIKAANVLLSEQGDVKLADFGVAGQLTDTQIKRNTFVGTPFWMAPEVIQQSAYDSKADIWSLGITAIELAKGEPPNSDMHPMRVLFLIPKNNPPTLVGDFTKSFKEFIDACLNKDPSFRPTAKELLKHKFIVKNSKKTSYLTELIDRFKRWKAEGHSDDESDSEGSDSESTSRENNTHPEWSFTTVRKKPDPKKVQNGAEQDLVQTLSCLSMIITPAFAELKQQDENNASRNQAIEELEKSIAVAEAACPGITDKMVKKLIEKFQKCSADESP
UniProt Q9Y6E0: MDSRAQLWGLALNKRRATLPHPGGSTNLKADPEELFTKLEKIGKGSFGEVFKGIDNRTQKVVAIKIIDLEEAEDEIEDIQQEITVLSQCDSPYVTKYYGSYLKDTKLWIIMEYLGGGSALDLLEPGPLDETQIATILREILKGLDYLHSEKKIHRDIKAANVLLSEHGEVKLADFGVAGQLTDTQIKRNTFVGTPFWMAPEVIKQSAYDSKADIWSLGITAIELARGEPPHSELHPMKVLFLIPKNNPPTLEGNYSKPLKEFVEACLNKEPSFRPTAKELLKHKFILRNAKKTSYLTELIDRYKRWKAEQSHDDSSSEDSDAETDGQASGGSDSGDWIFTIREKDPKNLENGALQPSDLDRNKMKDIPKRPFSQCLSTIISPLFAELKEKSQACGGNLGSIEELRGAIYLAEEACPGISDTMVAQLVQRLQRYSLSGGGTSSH
UniProt Q13188: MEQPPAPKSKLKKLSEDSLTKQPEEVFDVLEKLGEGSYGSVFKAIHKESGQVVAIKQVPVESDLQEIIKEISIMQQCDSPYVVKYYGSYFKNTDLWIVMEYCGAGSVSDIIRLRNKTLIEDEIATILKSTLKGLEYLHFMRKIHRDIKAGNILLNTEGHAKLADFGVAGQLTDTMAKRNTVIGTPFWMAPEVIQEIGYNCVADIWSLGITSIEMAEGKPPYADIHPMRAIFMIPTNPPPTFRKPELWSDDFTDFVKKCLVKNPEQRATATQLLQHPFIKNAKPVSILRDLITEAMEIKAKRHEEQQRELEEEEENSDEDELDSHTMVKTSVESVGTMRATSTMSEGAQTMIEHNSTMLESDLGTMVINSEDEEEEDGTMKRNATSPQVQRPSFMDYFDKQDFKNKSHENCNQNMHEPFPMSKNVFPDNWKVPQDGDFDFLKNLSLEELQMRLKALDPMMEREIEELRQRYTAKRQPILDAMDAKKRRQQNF

What was measured:
Experiment in all cases: Z-lyte biochemical IC50 assay (Invitrogen)
Settings in all cases: ATP concentration matched the Km
[1] = target: MST4 (Homo sapiens (Human), UniProt Q9P289)
Procedure: (§1) STK4 (MST1), STK3 (MST2); STK24 (MST3) and MST4 Assays
(§2) Biochemical IC50s were measured at Invitrogen using Z-lyte technology. Briefly, for STK4, the 2×STK4 (MST1)/Ser/Thr 07 mixture was prepared in 50 mM HEPES pH 7.5, 0.01% BRIJ35, 10 mM MgCl2, 1 mM EGTA. The final 10 μL Kinase Reaction consisted of 6.25-160 ng STK4 (MST1) and 2 μM Ser/Thr 07 in 50 mM HEPES pH 7.5, 0.01% BRIJ-35, 10 mM MgCl2, 1 mM EGTA. After the 1 hour Kinase Reaction incubation, 5 μL of a 1:100000 dilution of Development Reagent A was added. Compounds were screened in a 10 point titration with 3-fold serial dilutions starting at a concentration of 10 μM. The biochemical IC50s against other STK family members were measured similarly. The ATP concentration used matched the Km for each kinase.

[2] = target: STK24 (MST3) (Homo sapiens (Human), UniProt Q9Y6E0)
Procedure: as §1, §2

[3] = target: STK3 (MST2) (Homo sapiens (Human), UniProt Q13188)
Procedure: as §1, §2

COc1cc(C#N)ccc1-c1cnc(N)c(-c2ccc3c(c2)CCNC3=O)c1 [Compound I-61, 4-(6-amino-5-(1-oxo-1,2,3,4-tetrahydroisoquinolin-6-yl)pyridin-3-yl)-3-methoxybenzonitrile]
−: MST4 IC50 (nM) [1] | STK24 (MST3) IC50 (nM) [2] | STK3 (MST2) IC50 (nM) [3]
